Test results from the supplement of paper PMC12819154, “High-throughput peptide-centric local stability assay extends protein–ligand identification to membrane proteins, tissues and bacteria” (Nature Structural & Molecular Biology, 2025).
The list shows a part of the results. Most entries show no effect beyond the scatter of the controls.

Amino acid sequences for entries named in this document (tags omitted). A change or cut given only in a name is not applied to a line headed by its entry.
UniProt Q9Z0R9: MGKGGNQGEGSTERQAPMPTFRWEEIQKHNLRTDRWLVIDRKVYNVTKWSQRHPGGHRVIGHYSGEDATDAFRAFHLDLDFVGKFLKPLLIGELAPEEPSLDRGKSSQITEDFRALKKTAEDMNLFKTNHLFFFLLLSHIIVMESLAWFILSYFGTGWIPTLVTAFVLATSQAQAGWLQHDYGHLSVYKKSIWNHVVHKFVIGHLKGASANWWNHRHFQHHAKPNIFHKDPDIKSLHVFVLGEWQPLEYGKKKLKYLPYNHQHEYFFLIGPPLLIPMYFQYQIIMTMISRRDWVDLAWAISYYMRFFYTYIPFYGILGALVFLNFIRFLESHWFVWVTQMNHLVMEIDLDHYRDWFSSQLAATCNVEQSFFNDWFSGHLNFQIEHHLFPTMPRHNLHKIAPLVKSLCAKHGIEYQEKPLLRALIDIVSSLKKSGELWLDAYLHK
UniProt Q9WTX6, whole entry: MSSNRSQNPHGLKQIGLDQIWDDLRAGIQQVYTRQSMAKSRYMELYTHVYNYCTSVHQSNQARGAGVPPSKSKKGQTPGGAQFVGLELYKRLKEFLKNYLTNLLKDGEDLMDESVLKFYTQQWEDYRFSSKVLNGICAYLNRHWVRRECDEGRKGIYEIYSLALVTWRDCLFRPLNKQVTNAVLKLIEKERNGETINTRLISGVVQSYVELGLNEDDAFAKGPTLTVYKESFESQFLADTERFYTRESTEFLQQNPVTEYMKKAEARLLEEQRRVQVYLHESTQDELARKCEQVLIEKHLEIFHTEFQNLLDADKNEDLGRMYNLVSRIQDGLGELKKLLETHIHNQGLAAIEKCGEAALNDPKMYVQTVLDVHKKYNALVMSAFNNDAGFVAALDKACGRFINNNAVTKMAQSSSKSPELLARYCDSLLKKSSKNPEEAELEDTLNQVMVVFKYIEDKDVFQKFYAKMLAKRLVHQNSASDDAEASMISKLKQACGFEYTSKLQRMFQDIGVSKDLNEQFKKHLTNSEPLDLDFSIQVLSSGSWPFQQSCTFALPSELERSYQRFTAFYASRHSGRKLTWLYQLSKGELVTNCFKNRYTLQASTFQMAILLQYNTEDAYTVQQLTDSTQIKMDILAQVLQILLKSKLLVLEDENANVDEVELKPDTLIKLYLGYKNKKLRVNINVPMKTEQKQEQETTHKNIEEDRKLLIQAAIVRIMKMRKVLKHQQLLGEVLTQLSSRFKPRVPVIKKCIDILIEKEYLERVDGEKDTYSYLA
UniProt Q9Z2L6: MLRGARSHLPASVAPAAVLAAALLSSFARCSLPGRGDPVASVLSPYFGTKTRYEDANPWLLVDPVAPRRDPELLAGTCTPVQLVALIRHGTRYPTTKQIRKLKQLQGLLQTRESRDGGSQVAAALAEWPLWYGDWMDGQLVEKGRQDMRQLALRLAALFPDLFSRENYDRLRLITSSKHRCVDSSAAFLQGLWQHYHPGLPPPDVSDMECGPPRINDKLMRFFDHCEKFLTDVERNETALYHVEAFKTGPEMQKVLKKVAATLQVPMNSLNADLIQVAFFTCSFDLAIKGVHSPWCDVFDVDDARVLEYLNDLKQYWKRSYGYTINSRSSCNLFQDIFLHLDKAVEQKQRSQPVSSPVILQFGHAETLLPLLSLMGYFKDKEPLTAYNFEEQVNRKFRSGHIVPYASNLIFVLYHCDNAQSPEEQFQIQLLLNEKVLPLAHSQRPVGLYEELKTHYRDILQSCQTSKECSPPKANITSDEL
UniProt Q9WV85: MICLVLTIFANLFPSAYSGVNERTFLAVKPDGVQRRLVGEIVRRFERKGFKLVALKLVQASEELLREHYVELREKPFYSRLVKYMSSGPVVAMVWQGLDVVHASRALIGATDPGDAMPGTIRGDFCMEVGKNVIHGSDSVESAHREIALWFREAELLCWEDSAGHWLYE
UniProt Q9Z2G6: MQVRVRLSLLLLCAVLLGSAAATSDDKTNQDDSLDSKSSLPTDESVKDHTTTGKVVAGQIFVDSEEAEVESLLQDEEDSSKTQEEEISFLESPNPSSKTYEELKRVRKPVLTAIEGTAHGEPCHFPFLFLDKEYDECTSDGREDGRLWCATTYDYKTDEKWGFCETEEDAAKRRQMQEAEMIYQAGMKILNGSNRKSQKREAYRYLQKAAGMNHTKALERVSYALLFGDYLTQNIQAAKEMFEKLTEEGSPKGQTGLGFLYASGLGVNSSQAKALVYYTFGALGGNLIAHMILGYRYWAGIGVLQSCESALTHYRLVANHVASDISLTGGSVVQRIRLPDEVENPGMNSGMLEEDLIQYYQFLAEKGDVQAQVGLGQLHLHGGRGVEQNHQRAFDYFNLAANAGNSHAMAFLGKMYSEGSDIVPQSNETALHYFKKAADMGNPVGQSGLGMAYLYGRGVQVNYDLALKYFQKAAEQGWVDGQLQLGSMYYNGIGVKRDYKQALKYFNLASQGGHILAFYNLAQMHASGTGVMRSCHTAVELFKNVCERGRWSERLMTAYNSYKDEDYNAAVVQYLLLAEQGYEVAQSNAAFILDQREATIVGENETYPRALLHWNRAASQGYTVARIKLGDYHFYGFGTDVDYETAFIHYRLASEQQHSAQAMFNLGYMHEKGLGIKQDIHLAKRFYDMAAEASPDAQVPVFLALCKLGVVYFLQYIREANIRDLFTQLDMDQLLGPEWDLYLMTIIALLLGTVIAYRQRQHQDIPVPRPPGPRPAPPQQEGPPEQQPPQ
UniProt Q9WV69: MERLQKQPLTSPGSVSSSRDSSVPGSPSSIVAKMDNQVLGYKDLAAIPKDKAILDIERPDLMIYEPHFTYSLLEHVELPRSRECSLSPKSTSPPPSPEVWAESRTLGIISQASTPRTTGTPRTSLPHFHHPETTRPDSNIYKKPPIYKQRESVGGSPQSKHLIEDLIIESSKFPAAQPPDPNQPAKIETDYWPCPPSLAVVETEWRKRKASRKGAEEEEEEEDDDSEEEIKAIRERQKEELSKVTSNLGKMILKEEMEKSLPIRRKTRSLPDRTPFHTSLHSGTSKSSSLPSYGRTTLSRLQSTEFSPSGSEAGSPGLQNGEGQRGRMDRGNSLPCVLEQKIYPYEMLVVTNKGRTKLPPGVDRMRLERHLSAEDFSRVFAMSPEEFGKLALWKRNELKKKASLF
UniProt Q9Z1Z2: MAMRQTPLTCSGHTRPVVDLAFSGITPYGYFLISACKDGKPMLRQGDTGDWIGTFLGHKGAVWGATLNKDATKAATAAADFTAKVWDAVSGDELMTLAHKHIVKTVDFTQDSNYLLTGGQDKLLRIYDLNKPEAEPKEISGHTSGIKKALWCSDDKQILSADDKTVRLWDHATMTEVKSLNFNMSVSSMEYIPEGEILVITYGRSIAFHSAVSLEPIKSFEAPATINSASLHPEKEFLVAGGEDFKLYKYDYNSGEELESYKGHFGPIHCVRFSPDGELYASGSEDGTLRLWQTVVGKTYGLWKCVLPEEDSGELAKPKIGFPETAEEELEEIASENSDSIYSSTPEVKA
UniProt Q9WU84: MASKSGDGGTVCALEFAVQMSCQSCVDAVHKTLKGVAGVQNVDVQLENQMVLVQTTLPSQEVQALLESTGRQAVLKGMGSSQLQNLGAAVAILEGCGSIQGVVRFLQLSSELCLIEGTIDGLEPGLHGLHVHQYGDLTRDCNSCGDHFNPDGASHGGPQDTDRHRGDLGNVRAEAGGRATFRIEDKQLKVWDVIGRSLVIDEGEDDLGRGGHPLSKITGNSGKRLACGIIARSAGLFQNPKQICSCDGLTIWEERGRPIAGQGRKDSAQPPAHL
UniProt Q9WU60: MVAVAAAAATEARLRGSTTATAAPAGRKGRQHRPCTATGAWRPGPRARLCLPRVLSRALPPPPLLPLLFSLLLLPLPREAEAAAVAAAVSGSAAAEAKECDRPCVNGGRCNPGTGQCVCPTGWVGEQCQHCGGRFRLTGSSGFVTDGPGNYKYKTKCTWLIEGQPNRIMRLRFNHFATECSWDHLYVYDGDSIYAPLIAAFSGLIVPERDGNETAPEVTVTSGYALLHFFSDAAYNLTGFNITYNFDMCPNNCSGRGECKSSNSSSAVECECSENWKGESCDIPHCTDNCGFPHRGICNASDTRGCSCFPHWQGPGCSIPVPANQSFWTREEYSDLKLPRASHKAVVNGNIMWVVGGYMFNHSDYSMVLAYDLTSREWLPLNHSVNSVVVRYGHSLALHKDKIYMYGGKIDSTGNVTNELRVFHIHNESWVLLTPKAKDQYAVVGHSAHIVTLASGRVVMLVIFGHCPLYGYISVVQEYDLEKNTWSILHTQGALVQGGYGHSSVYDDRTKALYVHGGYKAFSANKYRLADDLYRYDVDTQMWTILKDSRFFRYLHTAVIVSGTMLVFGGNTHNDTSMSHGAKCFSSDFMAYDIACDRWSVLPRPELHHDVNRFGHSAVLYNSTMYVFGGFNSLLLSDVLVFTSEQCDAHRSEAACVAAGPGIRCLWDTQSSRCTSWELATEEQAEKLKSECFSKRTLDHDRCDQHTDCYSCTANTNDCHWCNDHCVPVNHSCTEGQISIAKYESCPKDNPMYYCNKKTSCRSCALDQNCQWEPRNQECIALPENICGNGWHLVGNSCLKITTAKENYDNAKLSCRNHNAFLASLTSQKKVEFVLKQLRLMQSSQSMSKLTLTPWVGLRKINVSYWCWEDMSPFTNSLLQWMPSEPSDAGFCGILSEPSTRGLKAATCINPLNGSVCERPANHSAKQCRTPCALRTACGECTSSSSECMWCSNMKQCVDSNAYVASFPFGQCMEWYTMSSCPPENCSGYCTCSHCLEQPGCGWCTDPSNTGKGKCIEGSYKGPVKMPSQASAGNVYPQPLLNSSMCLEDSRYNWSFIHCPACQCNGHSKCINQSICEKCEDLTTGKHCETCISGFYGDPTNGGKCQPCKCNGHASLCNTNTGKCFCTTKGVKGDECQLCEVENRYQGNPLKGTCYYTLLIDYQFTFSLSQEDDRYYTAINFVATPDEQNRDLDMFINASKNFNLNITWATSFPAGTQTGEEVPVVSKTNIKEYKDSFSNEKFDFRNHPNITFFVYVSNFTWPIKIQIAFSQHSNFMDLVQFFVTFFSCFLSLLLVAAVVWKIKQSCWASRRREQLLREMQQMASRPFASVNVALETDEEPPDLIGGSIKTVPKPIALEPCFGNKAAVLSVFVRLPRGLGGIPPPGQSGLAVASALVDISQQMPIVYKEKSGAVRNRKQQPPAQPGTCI
UniProt Q9Z1M8, whole entry: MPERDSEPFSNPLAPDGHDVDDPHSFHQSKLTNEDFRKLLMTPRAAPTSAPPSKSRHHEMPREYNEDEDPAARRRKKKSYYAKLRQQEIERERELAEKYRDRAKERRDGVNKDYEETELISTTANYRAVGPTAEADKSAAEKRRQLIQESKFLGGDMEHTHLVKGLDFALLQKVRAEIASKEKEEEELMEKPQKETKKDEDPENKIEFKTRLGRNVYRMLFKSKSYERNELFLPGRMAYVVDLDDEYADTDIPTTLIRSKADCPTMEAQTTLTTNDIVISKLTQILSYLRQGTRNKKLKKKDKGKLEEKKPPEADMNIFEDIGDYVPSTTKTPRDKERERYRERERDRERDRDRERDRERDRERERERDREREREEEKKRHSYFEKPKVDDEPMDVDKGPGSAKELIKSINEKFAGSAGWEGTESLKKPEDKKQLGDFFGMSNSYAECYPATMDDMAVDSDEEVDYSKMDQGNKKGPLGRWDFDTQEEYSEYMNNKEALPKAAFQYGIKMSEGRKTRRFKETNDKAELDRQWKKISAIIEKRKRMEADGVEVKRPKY
UniProt Q9QZE5: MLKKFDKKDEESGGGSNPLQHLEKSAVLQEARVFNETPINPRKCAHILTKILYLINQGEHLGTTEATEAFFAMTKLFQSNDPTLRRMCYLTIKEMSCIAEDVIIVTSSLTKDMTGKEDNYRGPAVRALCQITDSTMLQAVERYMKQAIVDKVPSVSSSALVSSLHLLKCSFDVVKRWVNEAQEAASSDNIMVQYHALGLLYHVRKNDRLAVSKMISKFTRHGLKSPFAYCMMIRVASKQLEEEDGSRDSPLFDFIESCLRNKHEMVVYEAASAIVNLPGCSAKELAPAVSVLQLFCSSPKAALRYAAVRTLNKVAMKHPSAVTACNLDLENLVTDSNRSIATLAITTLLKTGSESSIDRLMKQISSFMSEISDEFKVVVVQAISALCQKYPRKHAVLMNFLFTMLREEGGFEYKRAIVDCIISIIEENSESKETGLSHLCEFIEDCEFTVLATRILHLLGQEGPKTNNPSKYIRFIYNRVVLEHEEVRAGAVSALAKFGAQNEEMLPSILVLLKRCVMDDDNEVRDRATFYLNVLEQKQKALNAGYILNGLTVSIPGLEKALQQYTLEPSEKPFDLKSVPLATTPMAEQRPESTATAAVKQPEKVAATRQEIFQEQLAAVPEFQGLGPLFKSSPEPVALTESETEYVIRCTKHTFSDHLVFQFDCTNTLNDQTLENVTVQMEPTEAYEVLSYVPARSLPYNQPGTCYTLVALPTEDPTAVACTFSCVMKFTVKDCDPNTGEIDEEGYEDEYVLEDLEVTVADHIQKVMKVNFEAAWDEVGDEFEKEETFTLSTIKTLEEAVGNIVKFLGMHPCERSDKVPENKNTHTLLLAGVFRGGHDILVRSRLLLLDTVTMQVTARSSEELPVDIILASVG

Each target was assayed with CN[C@@H]1C[C@H]2O[C@@](C)([C@@H]1OC)n1c3ccccc3c3c4c(c5c6ccccc6n2c5c31)C(=O)NC4 [staurosporine] (assay: log2 fold change of pooled soluble protein (PISA), ligand vs vehicle (log2 ratio); higher = more thermally stabilized). Conditions: ligand concentration: 20 uM; assay format: PISA pool 52.9/55.5/58.6 C.

Row | Target | log2 fold change of pooled soluble protein
1 | UniProt Q9Z0R9 | -0.113
2 | UniProt Q9R0Q7 | 0.0557
3 | UniProt Q9R0I7 | -0.237
4 | UniProt Q9WV98 | -0.135
5 | UniProt Q9WTX6 | -0.00952
6 | UniProt Q9WU19 | -0.0212
7 | UniProt Q9QZR0 | 0.000992
8 | UniProt Q9QZH6 | 0.0701
9 | UniProt Q9WVB0 | -0.18
10 | UniProt Q9WUH7 | 0.0398
11 | UniProt Q9WV91 | 0.198
12 | UniProt Q9WVD5 | 0.103
13 | UniProt Q9Z2L6 | 0.0393
14 | UniProt Q9R1C0 | -0.109
15 | UniProt Q9WV85 | -0.0916
16 | UniProt Q9WV68 | -0.0252
17 | UniProt Q9R1S7 | -0.11
18 | UniProt Q9WVA4 | -0.0481
19 | UniProt Q9Z2G6 | 0.107
20 | UniProt Q9Z2Y8 | -0.0227

Row | Target | log2 fold change of pooled soluble protein
21 | UniProt Q9QZ73 | 0.0349
22 | UniProt Q9Z0E8 | -0.14
23 | UniProt Q9R0Z9 | 0.139
24 | UniProt Q9WVR4 | 0.203
25 | UniProt Q9WV69 | -0.0939
26 | UniProt Q9Z2I0 | 0.0401
27 | UniProt Q9Z1Z2 | 0.0839
28 | UniProt Q9Z0F7 | -0.00888
29 | UniProt Q9Z210 | -0.0659
30 | UniProt Q9Z315 | 0.0254
31 | UniProt Q9WU00 | -0.03
32 | UniProt Q9WU84 | -0.0879
33 | UniProt Q9WU60 | 0.213
34 | UniProt Q9Z1M8 | -0.104
35 | UniProt Q9R069 | 0.0832
36 | UniProt Q9WUZ9 | -0.045
37 | UniProt Q9QZE5 | 0.108
38 | UniProt Q9WV92 | 0.0069
39 | UniProt Q9WTR5 | 0.0822

2 entries from above, field by field.
UniProt Q9R1C0
  log2 fold change of pooled soluble protein = -0.109
UniProt Q9WV85
  log2 fold change of pooled soluble protein = -0.0916
